The target of test [1] is T1, recombinant CCR1 (UniProt P32246 1-355, limits assumed).
T1 construct: whole, on cells; The assay used membranes of CHO transfectants, not whole cells
T1 sequence (looked up): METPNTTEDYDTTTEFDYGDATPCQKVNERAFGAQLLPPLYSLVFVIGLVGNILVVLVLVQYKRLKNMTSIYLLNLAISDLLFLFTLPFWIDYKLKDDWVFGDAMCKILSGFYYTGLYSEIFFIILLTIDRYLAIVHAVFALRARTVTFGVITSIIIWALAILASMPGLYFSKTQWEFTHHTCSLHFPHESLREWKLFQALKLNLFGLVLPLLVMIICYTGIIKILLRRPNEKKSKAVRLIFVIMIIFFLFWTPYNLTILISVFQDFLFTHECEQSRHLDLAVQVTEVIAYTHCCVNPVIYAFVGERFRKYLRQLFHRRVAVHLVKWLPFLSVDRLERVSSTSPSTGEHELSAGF
Description: SPA equilibrium competition with [125I]-MIP-1α on CHO-CCR1 membranes. The protocol:
Competitors were prepared by serial dilutions of the unlabelled chemokines in binding buffer to cover the range 10^-6-10^-12 M. The binding buffer used was 50 mM HEPES, pH 7.2 containing 1 mM CaCl_2, 5 mM MgCl_2, 0.15 M NaCl and 0.5% BSA. Wheatgerm SPA beads (Amersham) were solubilised in PBS to 50 mg/ml, and diluted in the binding buffer to a 10 mg/ml, and the final concentration in the assay was 0.25 mg/well. Membranes prepared from CHO cells expressing CCR1 or CCR5 were stored at −80° C. and diluted in the binding buffer to a 80 μg/ml. Equal volumes of membrane and beads stocks were mixed before performing the assay to reduce background. […] The plates were incubated at room temperature with agitation for 4 hours. Radioactivity was measured and data analysed as described for the heparin-binding assay.
MIP-1α for binding to recombinant CCR1 and CCR5 in membranes prepared from CHO stable transfectants. There was no significant difference in any of the single mutations on both receptors (results not shown).

Amino acid sequences for entries named in this document (tags omitted). A change or cut given only in a name is not applied to a line headed by its entry.
UniProt P13501: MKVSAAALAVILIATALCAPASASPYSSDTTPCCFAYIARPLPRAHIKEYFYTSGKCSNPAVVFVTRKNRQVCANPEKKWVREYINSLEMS

Test [2] deals with T1, recombinant CCR1. Description: SPA equilibrium competition with [125I]-MIP-1α on CHO-CCR1 membranes; WT RANTES is the reference.

We go through seven substances from patent US7402303 (LABORATOIRES SERONO, dated 2008).

No constants are given. Whether binding was seen depends on the method and setting. Some binding calls cover weakened binding; strength is not graded here.

On to “K45A-RANTES mutant (from UniProt P13501 24-91) (ligand)”, for which the binding entry with recombinant CCR1 [1] is given as “binds”.
On the same count and under the same terms, as for “K55A-RANTES mutant (from UniProt P13501 24-91) (ligand)”, the entry is “binds”; as for “K56A-RANTES mutant (from UniProt P13501 24-91) (ligand)”, “binds”.
On the same count and under the same terms, then “R44A-RANTES mutant (from UniProt P13501 24-91) (ligand)”, with “binds”.
The same measure, in the same setting: then “R47A-RANTES mutant (from UniProt P13501 24-91) (ligand)”, with “binds”; and “R59A-RANTES mutant (from UniProt P13501 24-91) (ligand)”, with “binds”.
With “Wild-type (WT) RANTES (from UniProt P13501 24-91) (ligand)”, the binding entry with recombinant CCR1 [2] is “binds”.
